Drug screen on melanoma cell lines: apoptosis marker

From a melanoma drug combination screen (doi:10.1371/journal.pone.0140310); values rounded.

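Human melanoma cell lines in 1,536-well plates were treated with two drugs together for 72 h, then fixed, stained and imaged. Values are the share of nuclei positive for cleaved PARP as a percentage of the same share in the DMSO control: 100 is the control level, higher means more apoptosis. Concentrations were fixed for each drug; these are the higher of two levels. These are primary screening values without error estimates. Basal and induced levels differ widely between cell lines.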
Only some of the drugs and lines screened are listed, without regard to their results.

All values are for the listed drug together with U73122 (2000 nM): COc1ccc2c(c1)CCC1C2CCC2(C)C(NCCCCCCN3C(=O)C=CC3=O)CCC12 (stereo not shown)

Drugs:
tozasertib (30 nM): Cc1cc(Nc2cc(N3CCN(C)CC3)nc(Sc3ccc(NC(=O)C4CC4)cc3)n2)n[nH]1
vatalanib (10000 nM): Clc1ccc(Nc2nnc(Cc3ccncc3)c3ccccc23)cc1
PLX4720 (400 nM): CCCS(=O)(=O)Nc1ccc(F)c(C(=O)c2c[nH]c3ncc(Cl)cc23)c1F
enzastaurin (4000 nM): Cn1cc(C2=C(c3cn(C4CCN(Cc5ccccn5)CC4)c4ccccc34)C(=O)NC2=O)c2ccccc21
SNS-314 (4 nM): O=C(Nc1cccc(Cl)c1)Nc1ncc(CCNc2ncnc3ccsc23)s1
pazopanib (2000 nM): Cc1ccc(Nc2nccc(N(C)c3ccc4c(C)n(C)nc4c3)n2)cc1S(N)(=O)=O
XAV939 (10000 nM): Oc1nc(-c2ccc(C(F)(F)F)cc2)nc2c1CSCC2
T0901317 (7000 nM): O=S(=O)(c1ccccc1)N(CC(F)(F)F)c1ccc(C(O)(C(F)(F)F)C(F)(F)F)cc1
BI-78D3 (1000 nM): O=c1[nH]nc(Sc2ncc([N+](=O)[O-])s2)n1-c1ccc2c(c1)OCCO2
dasatinib (20 nM): Cc1nc(Nc2ncc(C(=O)Nc3c(C)cccc3Cl)s2)cc(N2CCN(CCO)CC2)n1
RKI-983 (2000 nM): C[C@@H](N)c1ccc(C(=O)Nc2ccnc3[nH]ccc23)cc1
indole-3-carbinol (4000 nM): OCc1c[nH]c2ccccc12
lenalidomide (5000 nM): Nc1cccc2c1CN(C1CCC(=O)NC1=O)C2=O (stereo not shown)
embelin (6000 nM): CCCCCCCCCCCC1=C(O)C(=O)C=C(O)C1=O
lestaurtinib (20 nM): C[C@]12O[C@H](C[C@]1(O)CO)n1c3ccccc3c3c4c(c5c6ccccc6n2c5c31)CNC4=O
ZM336372 (10000 nM): Cc1ccc(NC(=O)c2cccc(N(C)C)c2)cc1NC(=O)c1ccc(O)cc1
ruxolitinib (5000 nM): N#CC[C@H](C1CCCC1)n1cc(-c2ncnc3[nH]ccc23)cn1
GW441756 (2000 nM): Cn1cc(/C=C2\C(=O)Nc3cccnc32)c2ccccc21
perifosine (2000 nM): CCCCCCCCCCCCCCCCCCOP(=O)([O-])OC1CC[N+](C)(C)CC1
GSK650394 (800 nM): O=C(O)c1ccc(-c2c[nH]c3ncc(-c4ccccc4)cc23)cc1C1CCCC1
crizotinib (1000 nM): C[C@@H](Oc1cc(-c2cnn(C3CCNCC3)c2)cnc1N)c1c(Cl)ccc(F)c1Cl
KU-55933 (5000 nM): O=c1cc(-c2cccc3c2Sc2ccccc2S3)oc(N2CCOCC2)c1
tanespimycin (10 nM): C=CCNC1=C2C[C@@H](C)C[C@H](OC)[C@H](O)[C@@H](C)/C=C(\C)[C@H](OC(N)=O)[C@@H](OC)/C=C\C=C(/C)C(=O)NC(=CC1=O)C2=O
vismodegib (5000 nM): CS(=O)(=O)c1ccc(C(=O)Nc2ccc(Cl)c(-c3ccccn3)c2)c(Cl)c1
ENMD-2076 (200 nM): Cc1cc(Nc2cc(N3CCN(C)CC3)nc(/C=C/c3ccccc3)n2)n[nH]1
SNS-032 (50 nM): CC(C)(C)c1cnc(CSc2cnc(NC(=O)C3CCNCC3)s2)o1

| Partner | G-361 |
|---|---|
| ENMD-2076 | 140 |
| embelin | 496 |
| BI-78D3 | 65.3 |
| ZM336372 | 89.1 |
| GW441756 | 52.4 |
| tanespimycin | 106 |
| enzastaurin | 43.1 |
| PLX4720 | 99.2 |
| GSK650394 | 184 |
| SNS-032 | 62.8 |
| tozasertib | 141 |
| vismodegib | 133 |
| T0901317 | 82.7 |
| ruxolitinib | 308 |
| lenalidomide | 146 |
| XAV939 | 61.0 |
| crizotinib | 41.9 |
| SNS-314 | 78.1 |
| perifosine | 84.8 |
| indole-3-carbinol | 210 |
| KU-55933 | 93.9 |
| dasatinib | 54.5 |
| RKI-983 | 152 |
| lestaurtinib | 90.4 |
| pazopanib | 122 |
| vatalanib | 152 |